Measured values published in the supplement of paper PMC12067093, “Discovery and optimisation of a covalent ligand for TRIM25 and its application to targeted protein ubiquitination” (Chemical Science, 2025).
This is one part of the list.

By UniProt entry, the sequences of proteins in these tests, tags left out. Where a name states a change or a piece, a line headed by the entry shows the natural chain unless it says otherwise.
UniProt Q8NFF5: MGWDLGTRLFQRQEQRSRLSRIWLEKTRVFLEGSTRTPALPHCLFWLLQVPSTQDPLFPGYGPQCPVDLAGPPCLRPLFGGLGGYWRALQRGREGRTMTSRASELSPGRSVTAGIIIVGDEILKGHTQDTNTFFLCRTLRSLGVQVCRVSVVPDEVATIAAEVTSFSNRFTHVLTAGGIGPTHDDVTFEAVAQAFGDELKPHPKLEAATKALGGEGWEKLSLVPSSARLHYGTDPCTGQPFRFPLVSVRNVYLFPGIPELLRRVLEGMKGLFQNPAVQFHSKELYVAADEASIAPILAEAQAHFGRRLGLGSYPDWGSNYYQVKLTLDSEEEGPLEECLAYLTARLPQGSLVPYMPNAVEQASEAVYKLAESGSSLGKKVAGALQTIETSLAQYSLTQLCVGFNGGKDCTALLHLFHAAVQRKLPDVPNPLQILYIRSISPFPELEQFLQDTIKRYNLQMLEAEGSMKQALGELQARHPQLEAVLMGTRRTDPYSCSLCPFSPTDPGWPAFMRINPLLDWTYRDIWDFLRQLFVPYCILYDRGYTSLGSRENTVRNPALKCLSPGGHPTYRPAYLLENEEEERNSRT
UniProt Q9BYC5: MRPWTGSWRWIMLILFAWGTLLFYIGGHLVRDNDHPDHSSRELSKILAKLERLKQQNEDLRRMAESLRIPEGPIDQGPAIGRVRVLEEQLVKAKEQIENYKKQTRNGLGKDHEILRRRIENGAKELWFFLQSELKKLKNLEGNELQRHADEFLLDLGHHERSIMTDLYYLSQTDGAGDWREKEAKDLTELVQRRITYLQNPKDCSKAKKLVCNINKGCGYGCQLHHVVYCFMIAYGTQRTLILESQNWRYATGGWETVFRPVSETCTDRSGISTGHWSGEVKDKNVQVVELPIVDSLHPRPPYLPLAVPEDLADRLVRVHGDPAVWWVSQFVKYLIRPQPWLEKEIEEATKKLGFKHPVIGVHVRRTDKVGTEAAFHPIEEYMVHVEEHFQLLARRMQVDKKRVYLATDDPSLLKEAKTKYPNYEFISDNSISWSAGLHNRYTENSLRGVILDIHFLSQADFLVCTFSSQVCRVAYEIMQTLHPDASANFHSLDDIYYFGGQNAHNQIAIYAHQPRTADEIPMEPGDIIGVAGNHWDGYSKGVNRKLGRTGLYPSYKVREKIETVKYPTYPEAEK
UniProt Q5JSP0: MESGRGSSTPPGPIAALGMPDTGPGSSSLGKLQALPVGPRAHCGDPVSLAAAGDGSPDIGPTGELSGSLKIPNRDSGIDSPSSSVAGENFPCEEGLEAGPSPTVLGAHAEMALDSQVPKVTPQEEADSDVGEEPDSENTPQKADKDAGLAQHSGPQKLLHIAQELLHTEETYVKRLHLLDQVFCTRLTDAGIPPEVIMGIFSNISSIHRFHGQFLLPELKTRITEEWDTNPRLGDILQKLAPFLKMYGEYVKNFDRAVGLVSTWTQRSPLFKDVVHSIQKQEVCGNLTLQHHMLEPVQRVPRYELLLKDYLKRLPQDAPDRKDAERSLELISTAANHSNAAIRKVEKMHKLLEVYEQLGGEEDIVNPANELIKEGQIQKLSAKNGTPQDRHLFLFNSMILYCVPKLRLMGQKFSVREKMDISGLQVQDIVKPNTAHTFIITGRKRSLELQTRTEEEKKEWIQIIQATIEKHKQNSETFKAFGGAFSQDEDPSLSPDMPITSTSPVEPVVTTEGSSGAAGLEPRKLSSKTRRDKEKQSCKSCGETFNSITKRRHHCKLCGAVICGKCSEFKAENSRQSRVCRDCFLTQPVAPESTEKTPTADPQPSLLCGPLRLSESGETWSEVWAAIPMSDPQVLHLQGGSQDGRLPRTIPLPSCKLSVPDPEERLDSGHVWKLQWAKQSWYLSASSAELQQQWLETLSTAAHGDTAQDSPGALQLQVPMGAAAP
UniProt P02679: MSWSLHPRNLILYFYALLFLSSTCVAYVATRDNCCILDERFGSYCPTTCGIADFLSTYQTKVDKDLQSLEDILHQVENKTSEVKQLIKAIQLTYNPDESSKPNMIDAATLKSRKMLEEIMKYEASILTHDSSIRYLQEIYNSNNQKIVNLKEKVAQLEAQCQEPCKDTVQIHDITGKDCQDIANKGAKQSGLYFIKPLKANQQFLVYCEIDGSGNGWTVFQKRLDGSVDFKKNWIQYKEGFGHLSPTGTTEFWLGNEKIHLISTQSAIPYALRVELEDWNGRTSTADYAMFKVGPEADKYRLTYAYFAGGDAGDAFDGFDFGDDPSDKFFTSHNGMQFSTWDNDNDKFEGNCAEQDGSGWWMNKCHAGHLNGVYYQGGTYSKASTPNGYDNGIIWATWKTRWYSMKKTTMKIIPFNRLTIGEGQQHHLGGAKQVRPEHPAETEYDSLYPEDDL
UniProt Q8IY81: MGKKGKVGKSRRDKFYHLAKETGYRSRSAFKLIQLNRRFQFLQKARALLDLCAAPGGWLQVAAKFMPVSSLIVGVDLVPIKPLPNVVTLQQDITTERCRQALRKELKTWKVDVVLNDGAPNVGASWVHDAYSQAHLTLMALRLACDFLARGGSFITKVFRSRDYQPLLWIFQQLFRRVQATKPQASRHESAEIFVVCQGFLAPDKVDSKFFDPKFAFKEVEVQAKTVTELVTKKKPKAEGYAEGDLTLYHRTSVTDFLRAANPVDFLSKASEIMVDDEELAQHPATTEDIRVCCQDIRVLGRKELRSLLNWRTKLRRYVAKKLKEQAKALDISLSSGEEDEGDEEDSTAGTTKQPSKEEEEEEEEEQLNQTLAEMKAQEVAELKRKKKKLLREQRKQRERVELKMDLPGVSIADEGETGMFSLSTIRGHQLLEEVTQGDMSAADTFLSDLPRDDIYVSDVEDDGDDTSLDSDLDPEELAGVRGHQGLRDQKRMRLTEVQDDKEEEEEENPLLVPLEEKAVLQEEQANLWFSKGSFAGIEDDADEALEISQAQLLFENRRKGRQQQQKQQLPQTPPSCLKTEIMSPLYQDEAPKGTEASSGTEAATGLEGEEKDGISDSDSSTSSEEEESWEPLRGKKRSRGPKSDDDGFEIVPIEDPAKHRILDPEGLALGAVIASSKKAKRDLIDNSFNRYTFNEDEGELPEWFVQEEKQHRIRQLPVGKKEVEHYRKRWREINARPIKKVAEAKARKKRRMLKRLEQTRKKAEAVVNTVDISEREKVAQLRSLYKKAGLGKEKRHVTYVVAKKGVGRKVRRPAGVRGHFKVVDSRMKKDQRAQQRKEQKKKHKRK
UniProt Q13451: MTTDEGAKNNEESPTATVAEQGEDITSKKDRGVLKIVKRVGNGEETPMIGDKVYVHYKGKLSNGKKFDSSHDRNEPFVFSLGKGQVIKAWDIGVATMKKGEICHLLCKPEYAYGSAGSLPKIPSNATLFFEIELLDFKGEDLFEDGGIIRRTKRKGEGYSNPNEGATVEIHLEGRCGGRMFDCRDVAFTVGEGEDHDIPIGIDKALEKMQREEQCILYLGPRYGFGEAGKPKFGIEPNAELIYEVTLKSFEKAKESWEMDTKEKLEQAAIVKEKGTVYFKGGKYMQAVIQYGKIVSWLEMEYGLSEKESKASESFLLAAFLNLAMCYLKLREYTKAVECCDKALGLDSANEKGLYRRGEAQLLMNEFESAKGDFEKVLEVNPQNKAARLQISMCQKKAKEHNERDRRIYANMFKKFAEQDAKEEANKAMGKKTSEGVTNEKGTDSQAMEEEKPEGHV
UniProt O75369, whole entry, looked up: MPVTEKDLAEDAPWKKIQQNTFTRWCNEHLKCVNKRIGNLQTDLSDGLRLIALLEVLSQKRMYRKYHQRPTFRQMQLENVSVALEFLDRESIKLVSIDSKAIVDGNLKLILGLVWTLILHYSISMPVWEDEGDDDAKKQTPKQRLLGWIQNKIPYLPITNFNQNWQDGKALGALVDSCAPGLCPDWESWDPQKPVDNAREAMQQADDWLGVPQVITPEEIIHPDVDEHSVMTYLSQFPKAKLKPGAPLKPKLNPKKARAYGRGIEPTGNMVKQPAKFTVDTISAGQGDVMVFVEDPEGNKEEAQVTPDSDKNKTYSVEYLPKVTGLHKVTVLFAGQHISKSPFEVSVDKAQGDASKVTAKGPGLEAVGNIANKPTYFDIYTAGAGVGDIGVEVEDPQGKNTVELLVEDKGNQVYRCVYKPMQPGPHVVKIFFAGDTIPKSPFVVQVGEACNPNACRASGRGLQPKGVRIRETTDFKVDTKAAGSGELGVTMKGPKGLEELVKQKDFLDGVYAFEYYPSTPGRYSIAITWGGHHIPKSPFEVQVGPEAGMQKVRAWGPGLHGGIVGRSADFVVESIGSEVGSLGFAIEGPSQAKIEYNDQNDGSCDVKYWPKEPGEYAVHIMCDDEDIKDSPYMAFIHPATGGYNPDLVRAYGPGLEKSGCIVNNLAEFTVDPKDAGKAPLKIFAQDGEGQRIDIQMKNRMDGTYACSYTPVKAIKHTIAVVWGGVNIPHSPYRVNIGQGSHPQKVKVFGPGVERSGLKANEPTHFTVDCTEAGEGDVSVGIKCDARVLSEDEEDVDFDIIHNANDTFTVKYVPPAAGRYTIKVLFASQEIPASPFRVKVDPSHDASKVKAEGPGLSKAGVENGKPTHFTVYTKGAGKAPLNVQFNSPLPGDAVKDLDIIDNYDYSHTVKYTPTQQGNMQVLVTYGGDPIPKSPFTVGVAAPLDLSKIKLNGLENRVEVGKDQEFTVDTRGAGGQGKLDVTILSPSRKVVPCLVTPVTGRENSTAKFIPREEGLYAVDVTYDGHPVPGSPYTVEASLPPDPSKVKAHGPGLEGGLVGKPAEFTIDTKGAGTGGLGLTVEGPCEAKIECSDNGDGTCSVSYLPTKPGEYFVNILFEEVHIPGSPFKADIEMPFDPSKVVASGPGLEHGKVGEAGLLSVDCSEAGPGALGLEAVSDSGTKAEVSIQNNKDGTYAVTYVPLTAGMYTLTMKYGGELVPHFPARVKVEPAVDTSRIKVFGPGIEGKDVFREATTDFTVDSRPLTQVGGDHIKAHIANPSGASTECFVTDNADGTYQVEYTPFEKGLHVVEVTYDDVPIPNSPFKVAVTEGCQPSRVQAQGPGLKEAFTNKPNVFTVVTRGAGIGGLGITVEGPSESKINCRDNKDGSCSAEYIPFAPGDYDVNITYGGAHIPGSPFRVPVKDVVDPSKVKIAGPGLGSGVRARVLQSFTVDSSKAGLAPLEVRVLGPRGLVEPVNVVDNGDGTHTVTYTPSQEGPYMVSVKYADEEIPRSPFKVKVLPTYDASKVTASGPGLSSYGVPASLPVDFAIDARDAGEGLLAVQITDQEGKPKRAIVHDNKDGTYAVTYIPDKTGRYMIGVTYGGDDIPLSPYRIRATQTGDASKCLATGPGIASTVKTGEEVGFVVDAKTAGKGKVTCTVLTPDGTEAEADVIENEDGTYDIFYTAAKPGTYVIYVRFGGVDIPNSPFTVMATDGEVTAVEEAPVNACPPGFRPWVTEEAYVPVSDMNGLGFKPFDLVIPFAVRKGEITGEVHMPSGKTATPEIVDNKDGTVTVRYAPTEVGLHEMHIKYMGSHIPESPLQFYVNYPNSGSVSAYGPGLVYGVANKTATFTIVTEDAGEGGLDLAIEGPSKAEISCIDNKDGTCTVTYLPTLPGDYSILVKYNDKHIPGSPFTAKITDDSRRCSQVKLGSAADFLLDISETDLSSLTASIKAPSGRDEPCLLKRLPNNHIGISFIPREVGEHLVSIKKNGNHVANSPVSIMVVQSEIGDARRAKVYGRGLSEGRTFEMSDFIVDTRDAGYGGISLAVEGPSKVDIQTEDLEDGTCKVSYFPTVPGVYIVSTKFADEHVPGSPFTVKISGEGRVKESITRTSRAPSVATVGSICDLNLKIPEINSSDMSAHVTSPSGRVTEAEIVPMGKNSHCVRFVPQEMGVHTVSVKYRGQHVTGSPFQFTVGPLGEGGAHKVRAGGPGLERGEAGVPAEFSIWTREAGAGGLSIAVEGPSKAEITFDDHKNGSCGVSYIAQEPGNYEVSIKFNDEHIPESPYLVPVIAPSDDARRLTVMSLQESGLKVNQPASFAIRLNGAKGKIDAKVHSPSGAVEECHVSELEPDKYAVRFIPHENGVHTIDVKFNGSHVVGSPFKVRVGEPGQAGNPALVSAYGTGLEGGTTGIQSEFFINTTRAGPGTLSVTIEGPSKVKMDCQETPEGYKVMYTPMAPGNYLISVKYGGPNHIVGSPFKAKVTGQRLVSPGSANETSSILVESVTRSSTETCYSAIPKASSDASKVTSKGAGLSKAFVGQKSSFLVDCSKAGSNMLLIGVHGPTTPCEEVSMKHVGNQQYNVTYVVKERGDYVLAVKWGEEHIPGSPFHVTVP
UniProt Q9UIM3: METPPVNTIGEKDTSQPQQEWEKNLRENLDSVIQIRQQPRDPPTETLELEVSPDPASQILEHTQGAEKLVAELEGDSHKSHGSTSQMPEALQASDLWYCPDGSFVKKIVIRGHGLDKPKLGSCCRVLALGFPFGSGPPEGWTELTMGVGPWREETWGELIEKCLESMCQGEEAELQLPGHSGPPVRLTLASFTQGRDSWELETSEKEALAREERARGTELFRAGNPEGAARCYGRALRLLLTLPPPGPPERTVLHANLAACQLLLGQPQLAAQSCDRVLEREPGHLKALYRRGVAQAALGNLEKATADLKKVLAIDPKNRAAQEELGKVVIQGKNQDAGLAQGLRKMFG

Compound: CC1Cc2ccccc2N1C(=O)C1CCCN(C1)C(=O)CCl (mixture of isomers) [TRIM25 ligand 11 (diastereomer mixture)]
Assay: probe-labelled cysteine peptide fold change vs DMSO (competition) (log2 fold change); higher = less target engagement (more negative = stronger competition)
Details: THP-1, incubation time: 4 h
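Also: competitive chemoproteomic profiling in live THP-1 cells with an iodoacetamide desthiobiotin (IA-DTB) probe, comparing probe-labelled peptide intensities in compound-treated cells against DMSO-treated controls.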

Target | probe-labelled cysteine peptide fold change (10 µM) | probe-labelled cysteine peptide fold change (50 µM)
FXR1_P51114_211_HLECTK (UniProt P51114) | -0.0391 | -0.0989
FOCAD_Q5VW36_758_IRPEIPIPEELDDDEDVEDVDLSVPGSCYLK (UniProt Q5VW36) | -0.0823 | -0.0223
FKBP1A_P62942_23_RGQTCVVHYTGMLEDGKK (UniProt P62942) | -0.11 | -0.229
FUCA2_Q9BTY2_269_WGAGSICK (UniProt Q9BTY2) | -0.04 | -0.0426
FLAD1_Q8NFF5_338_LTLDSEEEGPLEECLAYLTAR (UniProt Q8NFF5) | 0.0204 | 0.352
FUT8_Q9BYC5_212_KLVCNINK (UniProt Q9BYC5) | -0.175 | -0.156
GABPA_Q06546_69_LQCSLDAHEICLQDIQLDPER (UniProt Q06546) | 0.125 | 0.116
FNBP4_Q8N3X1_673_TGTDSNSTESSETSTGSLCK (UniProt Q8N3X1) | 0.228 | -0.0467
FH_P07954_434_LLGDASVSFTENCVVGIQANTER (UniProt P07954) | -0.504 | -0.961
FUS_P35637_444_NECNQCK (UniProt P35637) | -0.1 | -0.237
FHL1_Q13642-1_273+276_FVFHQEQVYCPDCAK (UniProt Q13642) | 0.107 | 0.16
FMNL3_Q8IVF7_469_CHLEPNVR (UniProt Q8IVF7) | 0.0632 | 0.114
FNDC3B_Q53EP0_1025_LTEFTCYSFR (UniProt Q53EP0) | 0.331 | 0.28
FGD3_Q5JSP0_184_RLHLLDQVFCTR (UniProt Q5JSP0) | -0.0134 | 0.089
FGG_P02679_365_CHAGHLNGVYYQGGTYSK (UniProt P02679) | 0.519 | 0.367
FRMD8_Q9BZ67_191_VQLGPYQPGRPAACDLR (UniProt Q9BZ67) | -0.0885 | -0.1
FGR_P09769_415_LIKDDEYNPCQGSK (UniProt P09769) | 0.0828 | 0.00977

Target | probe-labelled cysteine peptide fold change (10 µM) | probe-labelled cysteine peptide fold change (50 µM)
FTSJ3_Q8IY81_293_VCCQDIR (UniProt Q8IY81) | 0.143 | 0.0618
FKBP5_Q13451_215_EEQCILYLGPR (UniProt Q13451) | -0.107 | -0.112
FLNB_O75369_991_KVVPCLVTPVTGR (UniProt O75369) | -0.0645 | -0.0535
FLII_Q13045_560_KACSAIHAVNLR (UniProt Q13045) | -0.37 | -0.31
GABPB1_Q06547_331_QCIEIIENR (UniProt Q06547) | 0.0442 | -0.164
FKBP15_Q5T1M5_828_DEHLQQYQEVCAQR (UniProt Q5T1M5) | -0.0655 | 0.0221
FHL2_Q14192_92_EDQLLCTDCYSNEYSSK (UniProt Q14192) | -0.0328 | -0.135
FLCN_Q8NFG4_215_VFEAEQFGCPQR (UniProt Q8NFG4) | 0.0678 | -0.0835
FLNB_O75369_769_ANEPTHFTVDCTEAGEGDVSVGIK (UniProt O75369) | 0.0914 | -0.146
FLNB_O75369_455_SPFVVQVGEACNPNACR (UniProt O75369) | -0.0325 | 0.0382
FLNB_O75369_2556_AGSNMLLIGVHGPTTPCEEVSMK (UniProt O75369) | 0.0188 | -0.189
FKBPL_Q9UIM3_168_CLESMCQGEEAELQLPGHSGPPVR (UniProt Q9UIM3) | -0.0587 | 0.107
FTSJ3_Q8IY81_577_QQLPQTPPSCLK (UniProt Q8IY81) | -0.164 | -0.174
FGD3_Q5JSP0_655_TIPLPSCK (UniProt Q5JSP0) | -0.133 | 0.104
FLAD1_Q8NFF5_147_SLGVQVCR (UniProt Q8NFF5) | -0.128 | 0.246
FOCAD_Q5VW36_1559_CLLEMTDDDANR (UniProt Q5VW36) | -0.0541 | 0.112
FKBPL_Q9UIM3_275_TVLHANLAACQLLLGQPQLAAQSCDR (UniProt Q9UIM3) | 0.114 | -0.0729

Part of the list above, field by field:
FKBPL_Q9UIM3_168_CLESMCQGEEAELQLPGHSGPPVR (UniProt Q9UIM3)
  probe-labelled cysteine peptide fold change (10 µM): -0.0587; probe-labelled cysteine peptide fold change (50 µM): 0.107
FTSJ3_Q8IY81_577_QQLPQTPPSCLK (UniProt Q8IY81)
  probe-labelled cysteine peptide fold change (10 µM): -0.164; probe-labelled cysteine peptide fold change (50 µM): -0.174
